This is one part of the list.
How the values were obtained:
Test in all cases: log2 fold change, soluble protein after heating vs DMSO (PISA); higher = thermal stabilisation; K562 cells, 10 uM, 30 min; active = over 0.2 and 3.5 SD of the protein, either way, in both replicates (recomputed)
[1] = compound: CC[C@@H]1C(=O)N(C)c2cnc(Nc3ccc(C(=O)NC4CCN(C)CC4)cc3OC)nc2N1C1CCCC1
Procedure, shortened: (§1)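 K562 cells (2×10^6 cells/mL) were treated with 10 μM compound for 30 min, and aliquots were heated for 3 min over 48°C-58°C. Pooled aliquots were extracted in PBS with 0.5% NP-40 at 4°C, and the supernatant after 21,000xg for 90 min was measured by TMTpro 16plex LC-MS/MS with channel sums equalised. Reported thermal stability, relative to control samples and from duplicates, is a log2 fold change.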

Chains of the proteins cited; added tags and fusions are not shown. Lines headed by an entry give the natural chain unless they say otherwise; changes in a name come on top.
UniProt Q96BZ8: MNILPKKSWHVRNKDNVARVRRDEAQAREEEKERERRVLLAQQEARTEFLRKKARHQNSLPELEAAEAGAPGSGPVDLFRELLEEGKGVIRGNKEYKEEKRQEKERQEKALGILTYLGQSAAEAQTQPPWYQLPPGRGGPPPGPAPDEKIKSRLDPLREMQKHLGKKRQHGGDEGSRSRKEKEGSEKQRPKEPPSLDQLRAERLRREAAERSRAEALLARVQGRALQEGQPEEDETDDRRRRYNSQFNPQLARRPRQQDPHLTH
UniProt O43813, whole entry, looked up: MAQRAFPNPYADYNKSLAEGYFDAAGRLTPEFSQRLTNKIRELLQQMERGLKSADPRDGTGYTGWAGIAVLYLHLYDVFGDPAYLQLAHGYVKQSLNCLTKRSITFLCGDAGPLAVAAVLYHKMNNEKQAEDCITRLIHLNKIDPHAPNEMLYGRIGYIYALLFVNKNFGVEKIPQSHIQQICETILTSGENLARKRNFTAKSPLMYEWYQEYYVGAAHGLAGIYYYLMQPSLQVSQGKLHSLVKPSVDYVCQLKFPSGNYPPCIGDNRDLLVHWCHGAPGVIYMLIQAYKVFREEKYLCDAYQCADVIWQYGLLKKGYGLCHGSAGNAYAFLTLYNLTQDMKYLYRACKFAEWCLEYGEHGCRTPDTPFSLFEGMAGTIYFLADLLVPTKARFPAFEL
UniProt Q96EK9: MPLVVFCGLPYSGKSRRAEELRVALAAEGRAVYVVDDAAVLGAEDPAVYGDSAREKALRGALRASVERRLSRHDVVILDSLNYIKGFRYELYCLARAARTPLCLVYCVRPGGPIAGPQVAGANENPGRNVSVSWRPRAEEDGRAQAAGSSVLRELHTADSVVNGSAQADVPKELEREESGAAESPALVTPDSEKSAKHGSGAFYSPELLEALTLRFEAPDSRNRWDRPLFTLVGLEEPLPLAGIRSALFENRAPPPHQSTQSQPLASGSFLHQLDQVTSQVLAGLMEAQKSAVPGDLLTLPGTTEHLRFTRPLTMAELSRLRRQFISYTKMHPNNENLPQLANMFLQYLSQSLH
UniProt Q15031: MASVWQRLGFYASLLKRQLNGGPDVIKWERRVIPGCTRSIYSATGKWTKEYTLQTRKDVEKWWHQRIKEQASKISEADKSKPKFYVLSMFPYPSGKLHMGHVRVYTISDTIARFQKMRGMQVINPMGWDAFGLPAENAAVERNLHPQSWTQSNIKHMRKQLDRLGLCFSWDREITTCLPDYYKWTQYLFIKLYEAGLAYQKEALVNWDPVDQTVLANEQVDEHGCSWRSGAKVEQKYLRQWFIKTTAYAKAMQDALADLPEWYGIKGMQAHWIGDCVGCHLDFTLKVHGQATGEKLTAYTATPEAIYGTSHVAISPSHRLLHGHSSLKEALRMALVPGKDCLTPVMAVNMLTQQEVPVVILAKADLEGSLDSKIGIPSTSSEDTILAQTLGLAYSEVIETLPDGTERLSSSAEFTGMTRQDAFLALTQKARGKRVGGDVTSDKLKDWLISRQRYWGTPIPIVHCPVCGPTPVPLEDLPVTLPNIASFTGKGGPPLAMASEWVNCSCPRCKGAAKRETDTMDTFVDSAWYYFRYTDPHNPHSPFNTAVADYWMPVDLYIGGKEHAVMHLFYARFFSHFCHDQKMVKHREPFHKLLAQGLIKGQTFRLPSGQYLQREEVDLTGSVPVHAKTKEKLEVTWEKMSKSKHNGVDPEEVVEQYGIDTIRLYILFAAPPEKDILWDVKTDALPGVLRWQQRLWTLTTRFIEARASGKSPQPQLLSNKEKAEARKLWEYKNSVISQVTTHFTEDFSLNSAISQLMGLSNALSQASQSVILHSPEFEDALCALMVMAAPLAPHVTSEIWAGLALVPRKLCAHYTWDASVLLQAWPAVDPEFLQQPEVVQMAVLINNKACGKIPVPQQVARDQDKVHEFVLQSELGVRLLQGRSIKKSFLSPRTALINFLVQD
UniProt Q9UHA4, whole entry, looked up: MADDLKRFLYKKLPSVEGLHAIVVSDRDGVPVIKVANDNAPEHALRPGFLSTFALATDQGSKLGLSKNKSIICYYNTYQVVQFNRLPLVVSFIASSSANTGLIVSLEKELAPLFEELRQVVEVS
UniProt P48357: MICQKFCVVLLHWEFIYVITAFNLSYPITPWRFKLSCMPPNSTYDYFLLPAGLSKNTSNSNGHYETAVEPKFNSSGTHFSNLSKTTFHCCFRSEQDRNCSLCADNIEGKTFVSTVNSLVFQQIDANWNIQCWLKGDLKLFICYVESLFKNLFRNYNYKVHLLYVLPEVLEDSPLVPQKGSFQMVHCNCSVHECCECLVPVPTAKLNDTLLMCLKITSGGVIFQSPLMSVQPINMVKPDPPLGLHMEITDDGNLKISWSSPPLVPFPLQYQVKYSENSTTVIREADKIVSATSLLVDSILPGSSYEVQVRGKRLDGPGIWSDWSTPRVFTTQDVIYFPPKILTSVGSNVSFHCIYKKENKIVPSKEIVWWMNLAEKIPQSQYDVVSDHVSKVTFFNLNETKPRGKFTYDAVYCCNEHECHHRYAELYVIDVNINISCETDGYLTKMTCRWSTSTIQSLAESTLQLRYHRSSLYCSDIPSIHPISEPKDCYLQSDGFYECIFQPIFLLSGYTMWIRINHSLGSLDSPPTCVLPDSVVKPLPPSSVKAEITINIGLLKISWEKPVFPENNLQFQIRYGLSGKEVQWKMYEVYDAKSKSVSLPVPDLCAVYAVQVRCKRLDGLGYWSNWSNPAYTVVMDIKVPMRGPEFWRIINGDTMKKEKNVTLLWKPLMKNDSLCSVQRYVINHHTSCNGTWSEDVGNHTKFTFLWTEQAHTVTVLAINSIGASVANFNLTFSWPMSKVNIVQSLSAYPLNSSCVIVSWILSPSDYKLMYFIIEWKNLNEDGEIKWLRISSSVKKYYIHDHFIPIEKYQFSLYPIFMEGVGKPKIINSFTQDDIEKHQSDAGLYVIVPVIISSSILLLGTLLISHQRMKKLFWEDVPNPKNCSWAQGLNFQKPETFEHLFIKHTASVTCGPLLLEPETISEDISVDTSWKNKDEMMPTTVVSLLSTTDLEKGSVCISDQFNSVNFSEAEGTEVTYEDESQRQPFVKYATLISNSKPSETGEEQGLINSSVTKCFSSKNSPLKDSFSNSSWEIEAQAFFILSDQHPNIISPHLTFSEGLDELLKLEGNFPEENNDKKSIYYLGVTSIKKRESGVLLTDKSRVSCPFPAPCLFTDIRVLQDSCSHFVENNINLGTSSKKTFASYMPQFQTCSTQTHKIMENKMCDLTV
UniProt P13796: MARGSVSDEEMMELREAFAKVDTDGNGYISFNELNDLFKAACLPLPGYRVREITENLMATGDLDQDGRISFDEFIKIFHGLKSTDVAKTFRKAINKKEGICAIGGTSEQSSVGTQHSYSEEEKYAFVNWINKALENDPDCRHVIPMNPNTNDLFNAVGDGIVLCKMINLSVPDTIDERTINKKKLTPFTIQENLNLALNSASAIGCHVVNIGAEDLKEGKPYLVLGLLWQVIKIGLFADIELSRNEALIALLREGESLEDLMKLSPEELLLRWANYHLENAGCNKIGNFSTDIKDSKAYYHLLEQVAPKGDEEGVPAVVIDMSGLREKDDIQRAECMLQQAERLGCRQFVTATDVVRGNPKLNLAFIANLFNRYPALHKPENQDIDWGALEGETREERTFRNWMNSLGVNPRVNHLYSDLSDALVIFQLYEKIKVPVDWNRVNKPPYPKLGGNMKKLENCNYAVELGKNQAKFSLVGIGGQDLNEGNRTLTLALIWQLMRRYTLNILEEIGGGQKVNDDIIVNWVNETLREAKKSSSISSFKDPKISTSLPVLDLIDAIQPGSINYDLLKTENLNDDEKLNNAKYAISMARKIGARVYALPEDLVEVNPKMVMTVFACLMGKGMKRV
UniProt P49257: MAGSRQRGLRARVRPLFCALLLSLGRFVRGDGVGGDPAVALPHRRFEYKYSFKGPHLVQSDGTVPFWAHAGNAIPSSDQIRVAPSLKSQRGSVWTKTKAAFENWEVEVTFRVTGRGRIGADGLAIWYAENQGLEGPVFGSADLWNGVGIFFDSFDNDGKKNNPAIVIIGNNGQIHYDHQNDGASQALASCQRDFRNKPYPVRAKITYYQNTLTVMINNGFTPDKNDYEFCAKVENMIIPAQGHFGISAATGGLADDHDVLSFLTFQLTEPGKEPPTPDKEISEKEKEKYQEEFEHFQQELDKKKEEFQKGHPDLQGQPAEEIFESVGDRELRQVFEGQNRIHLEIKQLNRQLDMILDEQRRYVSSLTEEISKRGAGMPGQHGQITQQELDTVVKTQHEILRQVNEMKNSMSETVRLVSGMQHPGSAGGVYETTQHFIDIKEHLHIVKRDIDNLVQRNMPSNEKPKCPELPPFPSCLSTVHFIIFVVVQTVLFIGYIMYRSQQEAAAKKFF
UniProt P25791: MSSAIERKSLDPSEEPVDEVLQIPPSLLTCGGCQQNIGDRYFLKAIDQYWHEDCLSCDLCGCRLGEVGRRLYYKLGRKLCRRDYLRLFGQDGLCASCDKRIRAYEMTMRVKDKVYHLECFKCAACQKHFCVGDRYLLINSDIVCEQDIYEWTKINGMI
UniProt Q6IAA8, whole entry, looked up: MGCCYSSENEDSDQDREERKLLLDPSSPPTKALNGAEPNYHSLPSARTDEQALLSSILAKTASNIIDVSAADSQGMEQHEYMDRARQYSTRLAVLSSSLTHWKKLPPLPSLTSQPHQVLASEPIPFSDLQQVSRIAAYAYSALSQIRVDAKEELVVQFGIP
UniProt Q9Y2Q5, whole entry, looked up: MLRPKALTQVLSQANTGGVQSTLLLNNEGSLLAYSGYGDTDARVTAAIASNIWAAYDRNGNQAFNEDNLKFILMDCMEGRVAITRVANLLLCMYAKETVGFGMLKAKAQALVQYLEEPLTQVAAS
UniProt P28838: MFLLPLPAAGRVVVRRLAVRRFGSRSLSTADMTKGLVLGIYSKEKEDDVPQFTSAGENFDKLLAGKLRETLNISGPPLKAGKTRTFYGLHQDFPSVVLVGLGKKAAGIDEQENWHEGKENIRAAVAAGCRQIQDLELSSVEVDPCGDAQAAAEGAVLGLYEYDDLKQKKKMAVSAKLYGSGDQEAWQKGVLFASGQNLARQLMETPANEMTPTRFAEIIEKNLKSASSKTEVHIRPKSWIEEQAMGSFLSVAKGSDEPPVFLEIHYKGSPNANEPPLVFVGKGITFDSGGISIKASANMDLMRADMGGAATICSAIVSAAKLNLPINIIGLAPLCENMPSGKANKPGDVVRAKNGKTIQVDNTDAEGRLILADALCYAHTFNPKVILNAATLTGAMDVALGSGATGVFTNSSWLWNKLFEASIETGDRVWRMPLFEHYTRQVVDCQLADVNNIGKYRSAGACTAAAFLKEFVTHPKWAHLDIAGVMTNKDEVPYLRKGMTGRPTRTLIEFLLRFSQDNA
UniProt Q9H008: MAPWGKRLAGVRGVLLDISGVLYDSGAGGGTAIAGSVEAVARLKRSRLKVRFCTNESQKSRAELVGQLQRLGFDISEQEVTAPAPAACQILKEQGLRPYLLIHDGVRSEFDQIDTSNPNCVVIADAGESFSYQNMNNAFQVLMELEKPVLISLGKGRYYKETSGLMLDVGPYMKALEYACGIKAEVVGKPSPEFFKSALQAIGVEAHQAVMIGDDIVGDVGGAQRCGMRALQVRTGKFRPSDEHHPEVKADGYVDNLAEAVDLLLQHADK
UniProt P11279: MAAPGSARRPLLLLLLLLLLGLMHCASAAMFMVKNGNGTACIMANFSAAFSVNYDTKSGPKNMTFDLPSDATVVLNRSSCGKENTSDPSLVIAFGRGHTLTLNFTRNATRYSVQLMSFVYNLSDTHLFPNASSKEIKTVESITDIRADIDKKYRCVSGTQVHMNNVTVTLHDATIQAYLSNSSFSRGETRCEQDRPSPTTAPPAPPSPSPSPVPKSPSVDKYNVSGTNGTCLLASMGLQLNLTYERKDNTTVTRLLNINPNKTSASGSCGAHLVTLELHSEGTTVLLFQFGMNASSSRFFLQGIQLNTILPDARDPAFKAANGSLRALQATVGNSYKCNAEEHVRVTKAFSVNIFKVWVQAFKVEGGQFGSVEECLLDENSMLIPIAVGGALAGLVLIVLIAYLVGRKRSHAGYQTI
UniProt Q96EM0: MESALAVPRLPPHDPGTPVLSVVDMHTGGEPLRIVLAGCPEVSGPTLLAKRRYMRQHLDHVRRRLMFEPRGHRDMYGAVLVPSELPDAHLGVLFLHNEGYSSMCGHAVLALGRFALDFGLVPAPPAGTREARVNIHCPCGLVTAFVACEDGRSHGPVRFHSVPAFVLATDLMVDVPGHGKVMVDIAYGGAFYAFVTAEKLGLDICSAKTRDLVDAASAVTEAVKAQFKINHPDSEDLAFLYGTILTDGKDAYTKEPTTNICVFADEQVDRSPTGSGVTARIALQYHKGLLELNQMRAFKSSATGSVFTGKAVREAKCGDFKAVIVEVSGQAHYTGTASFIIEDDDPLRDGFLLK

volasertib = compound: CC[C@@H]1C(=O)N(C)c2cnc(Nc3ccc(C(=O)N[C@H]4CC[C@H](N5CCN(CC6CC6)CC5)CC4)cc3OC)nc2N1C(C)C [volasertib]
Procedure, shortened: as §1

[2] = compound: CC[C@H](C)N1C=C(C2=C(C=C(C=C21)C3=CN=C(C=C3)N4CCNCC4)C(=O)NCC5=C(C=C(NC5=O)C)C)C
Procedure, shortened: as §1

epoxomicin = compound: CC[C@H](C)[C@@H](C(=O)N[C@@H]([C@@H](C)O)C(=O)N[C@@H](CC(C)C)C(=O)[C@]1(CO1)C)NC(=O)[C@H]([C@@H](C)CC)N(C)C(=O)C [epoxomicin]
Procedure, shortened: as §1

[3] = compound: CCn1c(C(=O)N(C2CC2)C2CC2)cc2c3c(ncn3C)c(Nc3cc(C)n(C)n3)nc21
Procedure, shortened: as §1

[4] = compound: CCn1cc(-c2ccnc3[nH]c(-c4cccc(CN(C)C)c4)cc23)c(-c2ccc(NC(=O)N(C)C)cc2)n1
Procedure, shortened: as §1

[5] = compound: CN(C)CC(=O)Nc1ccc2[nH]c(=O)c3ccccc3c2c1
Procedure, shortened: as §1

rosiglitazone = compound: CN(CCOC1=CC=C(C=C1)C[C@H]2C(=O)NC(=O)S2)C3=CC=CC=N3 (racemic) [rosiglitazone]
Procedure, shortened: as §1

[6] = compound: CN1C2=C(C3=C1C(=O)N(N=C3)CC4=CC(=CC=C4)N)SC(=C2)S(=O)C
Procedure, shortened: as §1

[7] = compound: CN1CCC(CNc2ccc3ncc(-c4cccc(OC(F)(F)F)c4)n3n2)CC1
Procedure, shortened: as §1

saracatinib = compound: CN1CCN(CCOc2cc(OC3CCOCC3)c3c(Nc4c(Cl)ccc5c4OCO5)ncnc3c2)CC1 [saracatinib]
Procedure, shortened: as §1

sotrastaurin = compound: CN1CCN(c2nc(C3=C(c4c[nH]c5ccccc45)C(=O)NC3=O)c3ccccc3n2)CC1 [sotrastaurin]
Procedure, shortened: as §1

alvocidib = compound: CN1CC[C@H](c2c(O)cc(O)c3c(=O)cc(-c4ccccc4Cl)oc23)[C@H](O)C1 [alvocidib]
Procedure, shortened: as §1

Tubastatin A = compound: CN1CCc2c(c3ccccc3n2Cc2ccc(C(=O)NO)cc2)C1 [Tubastatin A]
Procedure, shortened: as §1

[8] = compound: CNC(=O)C1=CC=CC=C1NC2=NC(=NC=C2Cl)NC3=C(C=C(C=C3)N4CCOCC4)OC
Procedure, shortened: as §1

defactinib = compound: CNC(=O)c1ccc(Nc2ncc(C(F)(F)F)c(NCc3nccnc3N(C)S(C)(=O)=O)n2)cc1 [defactinib]
Procedure, shortened: as §1

rucaparib = compound: CNCc1ccc(-c2[nH]c3cc(F)cc4c3c2CCNC4=O)cc1 [rucaparib]
Procedure, shortened: as §1

[9] = compound: CNc1nc(-c2ccc3c(N)n[nH]c3c2)cc(N2C[C@@H](C(=O)NC3CCCCC3)CC[C@H]2C)n1
Procedure, shortened: as §1

encorafenib = compound: COC(=O)N[C@@H](C)CNc1nccc(-c2cn(C(C)C)nc2-c2cc(Cl)cc(NS(C)(=O)=O)c2F)n1 [encorafenib]
Procedure, shortened: as §1

[10] = compound: COC(=O)[C@H](CCSC)NC(=O)C1=C(C=C(C=C1)NC[C@H](CS)N)C2=CC=CC=C2
Procedure, shortened: as §1

Measured: log2 fold change

LENG1 (UniProt Q96BZ8)
inactive: [1] 0.067 | volasertib 0.115 | [2] -0.018 | epoxomicin 0.006 | [3] -0.014 | [4] 0.041 | [5] -0.048 | rosiglitazone 0.023 | [6] -0.02 | [7] -0.056 | saracatinib 0 | sotrastaurin 0.019 | alvocidib 0.079 | Tubastatin A 0.004 | [8] -0.062 | defactinib 0.068 | rucaparib 0.007 | [9] -0.025 | encorafenib -0.065 | [10] 0.035

LANCL1 (UniProt O43813)
inactive: [1] 0.002 | volasertib 0.076 | [2] -0.023 | epoxomicin 0.038 | [3] -0.018 | [4] -0.013 | [5] -0.021 | rosiglitazone -0.018 | [6] -0.043 | [7] -0.097 | saracatinib 0.019 | sotrastaurin 0.009 | alvocidib -0.036 | Tubastatin A -0.005 | [8] -0.045 | defactinib -0.028 | rucaparib 0.015 | [9] -0.012 | encorafenib -0.019 | [10] -0.003

KTI12 (UniProt Q96EK9)
inactive: [1] -0.075 | volasertib 0.044 | [2] -0.015 | epoxomicin -0.029 | [3] -0.083 | [4] -0.082 | [5] 0.115 | rosiglitazone 0.064 | [6] 0.093 | [7] -0.008 | saracatinib 0.018 | sotrastaurin -0.023 | alvocidib 0.07 | Tubastatin A 0.027 | [8] 0.008 | defactinib -0.017 | rucaparib 0.086 | [9] 0.039 | encorafenib 0.038 | [10] -0.03

LARS2 (UniProt Q15031)
inactive: [1] -0.03 | volasertib -0.13 | [2] 0.024 | epoxomicin 0.033 | [3] 0.009 | [4] -0.059 | [5] 0 | rosiglitazone 0.008 | [6] -0.054 | [7] -0.092 | saracatinib 0.04 | sotrastaurin 0.003 | alvocidib -0.06 | Tubastatin A -0.006 | [8] 0.029 | defactinib -0.066 | rucaparib -0.022 | [9] 0.013 | encorafenib 0.035 | [10] -0.062

LAMTOR3 (UniProt Q9UHA4)
inactive: [1] -0.006 | volasertib 0.03 | [2] -0.041 | epoxomicin -0.002 | [3] 0.047 | [4] -0.118 | [5] -0.02 | rosiglitazone -0.045 | [6] 0.059 | [7] -0.036 | saracatinib -0.1 | sotrastaurin -0.079 | alvocidib 0.009 | Tubastatin A 0.027 | [8] -0.127 | defactinib -0.003 | rucaparib 0.061 | [9] -0.035 | encorafenib -0.01 | [10] -0.026

LAMB1 (UniProt P07942)
inactive: [1] -0.012 | volasertib 0.004 | [2] -0.043 | epoxomicin 0.005 | [3] -0.016 | [4] -0.057 | [5] -0.029 | rosiglitazone 0.092 | [6] -0.063 | [7] 0.057 | saracatinib 0.05 | sotrastaurin -0.009 | alvocidib -0.042 | Tubastatin A 0.057 | [8] 0.033 | defactinib 0.005 | rucaparib -0.006 | [9] 0.11 | encorafenib 0.013 | [10] -0.017

LEPR (UniProt P48357)
inactive: [1] 0.047 | volasertib -0.001 | [2] 0.006 | epoxomicin 0.01 | [3] 0.042 | [4] -0.022 | [5] -0.017 | rosiglitazone 0.023 | [6] -0.078 | [7] 0.104 | saracatinib 0.074 | sotrastaurin 0.031 | alvocidib 0.009 | Tubastatin A 0.042 | [8] 0.027 | defactinib -0.042 | rucaparib -0.012 | [9] -0.002 | encorafenib -0.01 | [10] 0.053

LCP1 (UniProt P13796)
inactive: [1] 0.011 | volasertib 0.027 | [2] -0.029 | epoxomicin -0.007 | [3] 0.032 | [4] -0.007 | [5] -0.018 | rosiglitazone 0.005 | [6] -0.025 | [7] -0.006 | saracatinib 0.057 | sotrastaurin 0.039 | alvocidib 0.02 | Tubastatin A -0.016 | [8] -0.012 | defactinib -0.013 | rucaparib -0.052 | [9] -0.021 | encorafenib -0.01 | [10] 0.024

LMAN1 (UniProt P49257)
inactive: [1] -0.055 | volasertib -0.045 | [2] 0.02 | epoxomicin 0.008 | [3] 0.012 | [4] -0.001 | [5] -0.043 | rosiglitazone -0.011 | [6] 0.01 | [7] -0.127 | saracatinib -0.033 | sotrastaurin -0.012 | alvocidib -0.002 | Tubastatin A -0.025 | [8] -0.01 | defactinib 0.002 | rucaparib 0.011 | [9] -0.152 | encorafenib -0.007 | [10] 0.018

LMO2 isoform 3 (UniProt P25791)
inactive: [1] -0.007 | volasertib -0.016 | [2] 0.014 | epoxomicin 0.028 | [3] 0.014 | [4] 0.017 | [5] 0.02 | rosiglitazone 0.081 | [6] 0 | [7] -0.013 | saracatinib 0.066 | sotrastaurin 0.033 | alvocidib -0.014 | Tubastatin A -0.007 | [8] 0 | defactinib 0.005 | rucaparib -0.014 | [9] -0.05 | encorafenib 0.026 | [10] 0.024

LAMTOR1 (UniProt Q6IAA8)
inactive: [1] -0.2 | volasertib -0.111 | [2] 0.022 | epoxomicin 0.115 | [3] 0.057 | [4] -0.04 | [5] 0.06 | rosiglitazone 0.001 | [6] 0.023 | [7] -0.137 | saracatinib -0.011 | sotrastaurin -0.097 | alvocidib -0.016 | Tubastatin A 0.059 | [8] -0.014 | defactinib 0.018 | rucaparib -0.033 | [9] -0.028 | encorafenib -0.012 | [10] -0.048

LAMTOR2 (UniProt Q9Y2Q5)
inactive: [1] -0.026 | volasertib 0.071 | [2] -0.037 | epoxomicin 0.09 | [3] 0.044 | [4] 0.021 | [5] 0.029 | rosiglitazone -0.026 | [6] 0.016 | [7] -0.039 | saracatinib -0.053 | sotrastaurin -0.033 | alvocidib 0.082 | Tubastatin A -0.009 | [8] -0.037 | defactinib -0.042 | rucaparib 0.026 | [9] -0.084 | encorafenib -0.039 | [10] 0.139

LAP3 (UniProt P28838)
inactive: [1] -0.003 | volasertib -0.014 | [2] -0.03 | epoxomicin 0.005 | [3] -0.016 | [4] -0.029 | [5] 0.021 | rosiglitazone 0.015 | [6] -0.053 | [7] 0.038 | saracatinib 0.028 | sotrastaurin 0.038 | alvocidib -0.014 | Tubastatin A 0.094 | [8] -0.019 | defactinib -0.018 | rucaparib -0.045 | [9] -0.021 | encorafenib 0.004 | [10] -0.003

2 entries drawn at random from those above:
LAMTOR2 (UniProt Q9Y2Q5)
inactive: [1] -0.026 | volasertib 0.071 | [2] -0.037 | epoxomicin 0.09 | [3] 0.044 | [4] 0.021 | [5] 0.029 | rosiglitazone -0.026 | [6] 0.016 | [7] -0.039 | saracatinib -0.053 | sotrastaurin -0.033 | alvocidib 0.082 | Tubastatin A -0.009 | [8] -0.037 | defactinib -0.042 | rucaparib 0.026 | [9] -0.084 | encorafenib -0.039 | [10] 0.139

LMAN1 (UniProt P49257)
inactive: [1] -0.055 | volasertib -0.045 | [2] 0.02 | epoxomicin 0.008 | [3] 0.012 | [4] -0.001 | [5] -0.043 | rosiglitazone -0.011 | [6] 0.01 | [7] -0.127 | saracatinib -0.033 | sotrastaurin -0.012 | alvocidib -0.002 | Tubastatin A -0.025 | [8] -0.01 | defactinib 0.002 | rucaparib 0.011 | [9] -0.152 | encorafenib -0.007 | [10] 0.018

(list continues)

LHPP (UniProt Q9H008)
inactive: [1] 0.058 | volasertib -0.009 | [2] -0.023 | epoxomicin 0.029 | [3] -0.005 | [4] -0.041 | [5] 0.017 | rosiglitazone 0.029 | [6] -0.01 | [7] -0.088 | saracatinib -0.019 | sotrastaurin 0.02 | alvocidib -0.012 | Tubastatin A 0.022 | [8] 0.012 | defactinib -0.004 | rucaparib -0.067 | [9] -0.009 | encorafenib -0.023 | [10] 0.045

LAMP1 (UniProt P11279)
inactive: [1] -0.006 | volasertib -0.009 | [2] -0.057 | epoxomicin -0.029 | [3] 0.01 | [4] -0.015 | [5] -0.003 | rosiglitazone -0.009 | [6] -0.042 | [7] 0.089 | saracatinib -0.007 | sotrastaurin 0.062 | alvocidib -0.012 | Tubastatin A -0.058 | [8] 0.035 | defactinib -0.019 | rucaparib -0.1 | [9] 0.027 | encorafenib 0.031 | [10] -0.049

L3HYPDH (UniProt Q96EM0)
inactive: [1] -0.032 | volasertib 0.078 | [2] 0.02 | epoxomicin 0.042 | [3] -0.002 | [4] -0.118 | [5] 0.016 | rosiglitazone 0.032 | [6] -0.113 | [7] -0.049 | saracatinib -0.039 | sotrastaurin 0.036 | alvocidib -0.016 | Tubastatin A -0.023 | [8] -0.038 | defactinib 0.007 | rucaparib -0.059 | [9] -0.022 | encorafenib 0.047 | [10] 0.002

Reference: the supplement of paper PMC10849652
